# Test results reported in patent US12252524B2, “GIP/GLP1 co-agonist compounds” (Eli Lilly and Company, priority 2018, dated 2025).
# Amino acid sequences for entries named in this document (tags omitted). Residues count along the entry.
# UniProt P43220, 24-463: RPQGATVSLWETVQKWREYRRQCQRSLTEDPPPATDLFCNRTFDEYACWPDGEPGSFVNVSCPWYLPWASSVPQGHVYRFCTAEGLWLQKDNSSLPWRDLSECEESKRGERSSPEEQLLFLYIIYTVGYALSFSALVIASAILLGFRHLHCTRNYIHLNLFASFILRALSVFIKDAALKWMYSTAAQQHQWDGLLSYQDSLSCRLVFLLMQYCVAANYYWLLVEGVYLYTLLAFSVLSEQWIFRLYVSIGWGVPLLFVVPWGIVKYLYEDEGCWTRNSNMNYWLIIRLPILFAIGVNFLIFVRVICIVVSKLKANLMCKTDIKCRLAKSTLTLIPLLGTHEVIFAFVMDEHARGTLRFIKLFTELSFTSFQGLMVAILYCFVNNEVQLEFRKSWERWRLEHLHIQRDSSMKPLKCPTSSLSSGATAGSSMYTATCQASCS
# For at least one compound, name, drawing or mass did not settle the structure. Numbered stars: 1 amine (or outer) side, 2 acyl side, 3 side chain; on linkers, the order of the positions; unused ones are H or OH. Square brackets hold non-standard residues; d marks the D form. Side chains are listed from the residue outwards. Peptide text beside a SMILES is read from it. * marks the point of attachment. C18 diacid = O=C(O)CCCCCCCCCCCCCCCCC(=O)*; γGlu = O=C(O)[C@H](CCC(=O)[*:2])N[*:1]; αMeL = CC(C)C[C@](C)(N)C(=O)O; AEEA = NCCOCCOCC(=O)O; Aib = CC(C)(N)C(=O)O
# Target: human GLP-1R (Homo sapiens, UniProt P43220)
# Assay: GLP-1R CHO cell β-arrestin recruitment assay
# Format: cell-based
# Set-up: host or cells: CHO-K1 PathHunter cells, assay-ready frozen
# Conditions: CHO-K1 cells, 0.1% w/v hydrolyzed Casein; read-out: hGLP1R B-Arrestin2 Rel EC50
# From the text: Activated G-protein coupled receptors can interact with the β-arrestin family of signalling proteins. […] CHO-K1 cells expressing Pro-Link-tagged Human GLP-1R and enzyme-acceptor-tagged β-arrestin-2 may be obtained from DiscoveRx and prepared as assay-ready frozen cells. Test peptides are solubilized in DMSO and serial dilutions are perfomed using the Echo acoustic dispenser (LabCyte). Assay media is the PathHunter Cell Assay Buffer (DiscoveRx) containing 0.1% w/v hydrolyzed Casein (Sigma). […] Plates are incubated for 90 minutes in a 37′C/5% C02 incubator and 10 ul of PathHunter detection reagent is added (DiscoveRx) and plates are incubated at room temperature for 60 minutes. Luminescence signal is measured. Peptide concentration-response curves fit to a four-parameter logistic model to calculate potency as an EC50.
compound,measurement,value
CC[C@H](C)[C@H](NC(=O)[C@H](CC(C)C)NC(=O)[C@H](Cc1ccc(O)cc1)NC(=O)[C@H](CCC(=O)O)NC(=O)[C@@H](NC(=O)[C@H](Cc1ccccc1)NC(=O)[C@H](C)NC(=O)C(C)(C)NC(=O)[C@H](CCC(N)=O)NC(=O)[C@H](C)NC(=O)[C@H](CCCCNC(=O)COCCOCCNC(=O)COCCOCCNC(=O)CC[C@H](NC(=O)CCCCCCCCCCCCCCCCC(=O)O)C(=O)O)NC(=O)[C@H](CCCCN)NC(=O)[C@H](CC(=O)O)NC(=O)[C@H](CC(C)C)NC(=O)[C@](C)(CC(C)C)NC(=O)[C@@H](NC(=O)[C@H](CO)NC(=O)[C@H](Cc1ccc(O)cc1)NC(=O)[C@H](CC(=O)O)NC(=O)[C@H](CO)NC(=O)[C@@H](NC(=O)[C@H](Cc1ccccc1)NC(=O)[C@@H](NC(=O)CNC(=O)[C@H](CCC(=O)O)NC(=O)C(C)(C)NC(=O)[C@@H](N)Cc1ccc(O)cc1)[C@@H](C)O)[C@@H](C)O)[C@@H](C)CC)[C@@H](C)CC)C(=O)N[C@@H](CCC(=O)O)C(=O)NCC(=O)NCC(=O)N1CCC[C@H]1C(=O)N[C@@H](CO)C(=O)N[C@@H](CO)C(=O)NCC(N)=O [Example 300] (H-Y[Aib]EGTFTSDYSI[αMeL]LDKK([AEEA-AEEA-γGlu-C18 diacid])AQ[Aib]AFIEYLIEGGPSSG-NH2),EC50,5.4 nM
